Test results as given in the supplement of paper PMC10849652.
The other results are listed elsewhere or left out.

Chains of the proteins cited; added tags and fusions are not shown. Lines headed by an entry give the natural chain unless they say otherwise; changes in a name come on top.
UniProt P24534: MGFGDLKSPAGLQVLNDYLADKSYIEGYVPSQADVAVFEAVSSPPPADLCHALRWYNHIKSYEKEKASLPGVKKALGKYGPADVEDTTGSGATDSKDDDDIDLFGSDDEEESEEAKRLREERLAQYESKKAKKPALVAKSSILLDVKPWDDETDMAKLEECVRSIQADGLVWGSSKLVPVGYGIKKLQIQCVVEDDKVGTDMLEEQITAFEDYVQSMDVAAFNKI
UniProt O00559: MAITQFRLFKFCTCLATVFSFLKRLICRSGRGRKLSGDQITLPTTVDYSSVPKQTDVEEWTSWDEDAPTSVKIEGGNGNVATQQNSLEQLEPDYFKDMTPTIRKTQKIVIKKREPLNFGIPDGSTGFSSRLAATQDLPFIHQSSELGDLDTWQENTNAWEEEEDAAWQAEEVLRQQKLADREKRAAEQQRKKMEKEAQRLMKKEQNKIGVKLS
UniProt P23919: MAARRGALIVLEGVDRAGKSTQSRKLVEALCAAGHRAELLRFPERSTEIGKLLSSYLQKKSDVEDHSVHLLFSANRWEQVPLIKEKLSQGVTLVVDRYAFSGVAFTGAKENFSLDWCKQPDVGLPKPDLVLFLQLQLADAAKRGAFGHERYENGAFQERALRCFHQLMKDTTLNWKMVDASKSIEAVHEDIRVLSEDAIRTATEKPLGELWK
UniProt Q6P2E9: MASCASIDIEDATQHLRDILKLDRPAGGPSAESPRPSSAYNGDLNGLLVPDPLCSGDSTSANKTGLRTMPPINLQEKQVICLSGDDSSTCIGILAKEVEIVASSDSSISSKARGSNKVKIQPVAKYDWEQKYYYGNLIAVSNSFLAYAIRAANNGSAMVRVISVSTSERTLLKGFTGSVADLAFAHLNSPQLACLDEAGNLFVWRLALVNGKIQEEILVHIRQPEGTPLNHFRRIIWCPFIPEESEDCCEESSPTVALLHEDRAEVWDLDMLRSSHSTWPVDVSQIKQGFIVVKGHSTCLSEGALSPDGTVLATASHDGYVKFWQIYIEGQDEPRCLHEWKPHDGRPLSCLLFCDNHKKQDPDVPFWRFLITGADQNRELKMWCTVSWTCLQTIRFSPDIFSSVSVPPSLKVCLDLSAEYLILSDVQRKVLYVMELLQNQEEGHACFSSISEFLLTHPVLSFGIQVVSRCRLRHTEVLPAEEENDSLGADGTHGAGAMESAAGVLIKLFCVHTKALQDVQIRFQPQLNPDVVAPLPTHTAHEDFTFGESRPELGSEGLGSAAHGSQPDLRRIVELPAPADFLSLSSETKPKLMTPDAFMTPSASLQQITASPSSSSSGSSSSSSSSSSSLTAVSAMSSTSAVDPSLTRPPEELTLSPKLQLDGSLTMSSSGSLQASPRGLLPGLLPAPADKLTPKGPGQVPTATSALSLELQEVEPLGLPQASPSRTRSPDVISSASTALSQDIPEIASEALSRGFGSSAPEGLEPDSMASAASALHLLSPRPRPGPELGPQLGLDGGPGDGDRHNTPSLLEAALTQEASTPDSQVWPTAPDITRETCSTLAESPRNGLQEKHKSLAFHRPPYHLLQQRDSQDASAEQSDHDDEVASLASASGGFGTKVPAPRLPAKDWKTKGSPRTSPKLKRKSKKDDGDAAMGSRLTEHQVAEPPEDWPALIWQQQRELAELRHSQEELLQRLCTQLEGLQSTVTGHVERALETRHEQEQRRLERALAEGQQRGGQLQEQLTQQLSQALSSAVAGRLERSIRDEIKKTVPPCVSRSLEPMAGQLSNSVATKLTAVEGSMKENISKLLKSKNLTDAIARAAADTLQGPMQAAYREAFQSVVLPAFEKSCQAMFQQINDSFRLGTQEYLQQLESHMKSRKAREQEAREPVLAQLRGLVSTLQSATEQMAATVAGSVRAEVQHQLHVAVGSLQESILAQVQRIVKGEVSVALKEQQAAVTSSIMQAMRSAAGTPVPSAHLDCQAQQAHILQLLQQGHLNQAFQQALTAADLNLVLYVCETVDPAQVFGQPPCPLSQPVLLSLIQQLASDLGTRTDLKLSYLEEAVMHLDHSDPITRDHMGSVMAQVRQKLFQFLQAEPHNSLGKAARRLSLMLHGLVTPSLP
UniProt Q9BQC3: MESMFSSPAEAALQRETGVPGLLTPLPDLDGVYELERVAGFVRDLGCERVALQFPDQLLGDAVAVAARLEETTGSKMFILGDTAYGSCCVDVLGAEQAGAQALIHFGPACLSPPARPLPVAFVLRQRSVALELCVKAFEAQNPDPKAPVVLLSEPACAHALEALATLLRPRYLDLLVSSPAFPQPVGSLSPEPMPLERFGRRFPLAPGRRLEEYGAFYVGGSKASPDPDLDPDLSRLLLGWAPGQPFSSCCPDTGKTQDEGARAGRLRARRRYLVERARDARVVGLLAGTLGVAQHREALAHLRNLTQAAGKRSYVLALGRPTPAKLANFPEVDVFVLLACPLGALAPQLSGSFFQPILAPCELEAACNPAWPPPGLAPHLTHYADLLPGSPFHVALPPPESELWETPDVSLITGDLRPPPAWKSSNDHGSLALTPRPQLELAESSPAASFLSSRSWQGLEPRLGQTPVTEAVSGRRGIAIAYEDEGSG
UniProt Q9BZG8: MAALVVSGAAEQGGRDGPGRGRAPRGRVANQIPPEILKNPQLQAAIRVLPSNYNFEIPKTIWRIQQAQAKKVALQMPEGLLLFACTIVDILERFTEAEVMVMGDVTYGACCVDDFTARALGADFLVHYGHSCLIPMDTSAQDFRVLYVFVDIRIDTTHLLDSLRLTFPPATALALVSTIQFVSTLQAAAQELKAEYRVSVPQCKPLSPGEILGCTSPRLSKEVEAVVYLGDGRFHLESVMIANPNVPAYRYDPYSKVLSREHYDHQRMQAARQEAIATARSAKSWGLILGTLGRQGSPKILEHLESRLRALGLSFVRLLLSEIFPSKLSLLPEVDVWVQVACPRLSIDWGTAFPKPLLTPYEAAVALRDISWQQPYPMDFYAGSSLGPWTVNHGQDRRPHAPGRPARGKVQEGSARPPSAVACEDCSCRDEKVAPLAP
UniProt Q86TI2: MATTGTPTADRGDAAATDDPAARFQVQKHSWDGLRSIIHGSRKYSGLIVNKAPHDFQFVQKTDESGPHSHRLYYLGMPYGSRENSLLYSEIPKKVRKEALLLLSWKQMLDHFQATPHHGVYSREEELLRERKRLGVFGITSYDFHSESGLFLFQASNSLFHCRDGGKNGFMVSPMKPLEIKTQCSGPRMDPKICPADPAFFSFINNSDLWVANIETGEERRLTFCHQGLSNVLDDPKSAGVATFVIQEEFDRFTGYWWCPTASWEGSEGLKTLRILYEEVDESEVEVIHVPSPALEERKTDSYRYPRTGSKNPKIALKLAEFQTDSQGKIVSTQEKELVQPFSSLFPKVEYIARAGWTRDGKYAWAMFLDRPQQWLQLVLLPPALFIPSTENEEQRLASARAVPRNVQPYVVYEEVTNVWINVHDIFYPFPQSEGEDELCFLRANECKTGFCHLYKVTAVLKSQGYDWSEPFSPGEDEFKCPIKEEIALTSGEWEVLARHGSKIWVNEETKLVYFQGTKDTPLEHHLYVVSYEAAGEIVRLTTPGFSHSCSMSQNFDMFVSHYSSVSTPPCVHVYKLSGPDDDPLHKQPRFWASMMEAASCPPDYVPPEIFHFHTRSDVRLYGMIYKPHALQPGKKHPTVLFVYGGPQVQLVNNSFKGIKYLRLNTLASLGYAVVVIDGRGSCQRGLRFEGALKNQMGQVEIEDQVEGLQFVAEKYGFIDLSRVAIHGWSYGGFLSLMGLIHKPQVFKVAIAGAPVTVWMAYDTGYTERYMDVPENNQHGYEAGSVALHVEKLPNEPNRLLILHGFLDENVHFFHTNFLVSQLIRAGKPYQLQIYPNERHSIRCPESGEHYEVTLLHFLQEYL
UniProt O60762: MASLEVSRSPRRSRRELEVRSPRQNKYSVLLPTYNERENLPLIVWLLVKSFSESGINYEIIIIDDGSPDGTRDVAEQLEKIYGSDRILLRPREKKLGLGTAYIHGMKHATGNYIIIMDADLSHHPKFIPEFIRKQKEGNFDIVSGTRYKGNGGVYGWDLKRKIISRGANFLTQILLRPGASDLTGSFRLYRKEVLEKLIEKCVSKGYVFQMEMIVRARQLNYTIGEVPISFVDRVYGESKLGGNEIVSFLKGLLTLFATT
UniProt Q9BVC3, whole entry, looked up: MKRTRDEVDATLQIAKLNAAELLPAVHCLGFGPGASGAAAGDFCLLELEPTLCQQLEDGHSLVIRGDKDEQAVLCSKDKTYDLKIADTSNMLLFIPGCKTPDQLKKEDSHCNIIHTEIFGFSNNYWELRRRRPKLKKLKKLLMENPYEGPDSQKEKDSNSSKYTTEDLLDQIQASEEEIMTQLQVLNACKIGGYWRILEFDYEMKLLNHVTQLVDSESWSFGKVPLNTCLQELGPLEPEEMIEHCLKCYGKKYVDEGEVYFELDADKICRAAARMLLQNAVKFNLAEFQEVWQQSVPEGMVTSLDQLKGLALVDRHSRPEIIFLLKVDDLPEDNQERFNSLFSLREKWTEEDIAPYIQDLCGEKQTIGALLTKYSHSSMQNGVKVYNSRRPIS
UniProt Q9NY33: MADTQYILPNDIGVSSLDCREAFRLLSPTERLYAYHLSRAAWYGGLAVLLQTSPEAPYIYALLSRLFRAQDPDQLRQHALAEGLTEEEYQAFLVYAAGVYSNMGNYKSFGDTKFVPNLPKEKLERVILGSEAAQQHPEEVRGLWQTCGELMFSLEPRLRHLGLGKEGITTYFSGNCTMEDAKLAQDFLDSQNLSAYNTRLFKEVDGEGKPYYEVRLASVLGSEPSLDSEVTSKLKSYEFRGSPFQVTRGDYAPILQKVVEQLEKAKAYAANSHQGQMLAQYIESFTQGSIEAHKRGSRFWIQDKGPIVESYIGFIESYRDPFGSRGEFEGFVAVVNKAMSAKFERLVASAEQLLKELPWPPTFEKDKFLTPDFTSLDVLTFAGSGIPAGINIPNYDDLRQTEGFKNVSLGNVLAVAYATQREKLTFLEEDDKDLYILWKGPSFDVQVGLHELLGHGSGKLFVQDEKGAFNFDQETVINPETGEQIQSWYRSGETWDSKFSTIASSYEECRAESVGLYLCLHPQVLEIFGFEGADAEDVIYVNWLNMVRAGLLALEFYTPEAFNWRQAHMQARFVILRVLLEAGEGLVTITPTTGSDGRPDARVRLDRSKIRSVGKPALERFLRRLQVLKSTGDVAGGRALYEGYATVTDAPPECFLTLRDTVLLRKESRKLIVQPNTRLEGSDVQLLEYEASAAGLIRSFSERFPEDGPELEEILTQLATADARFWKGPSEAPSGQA
UniProt Q9NX74: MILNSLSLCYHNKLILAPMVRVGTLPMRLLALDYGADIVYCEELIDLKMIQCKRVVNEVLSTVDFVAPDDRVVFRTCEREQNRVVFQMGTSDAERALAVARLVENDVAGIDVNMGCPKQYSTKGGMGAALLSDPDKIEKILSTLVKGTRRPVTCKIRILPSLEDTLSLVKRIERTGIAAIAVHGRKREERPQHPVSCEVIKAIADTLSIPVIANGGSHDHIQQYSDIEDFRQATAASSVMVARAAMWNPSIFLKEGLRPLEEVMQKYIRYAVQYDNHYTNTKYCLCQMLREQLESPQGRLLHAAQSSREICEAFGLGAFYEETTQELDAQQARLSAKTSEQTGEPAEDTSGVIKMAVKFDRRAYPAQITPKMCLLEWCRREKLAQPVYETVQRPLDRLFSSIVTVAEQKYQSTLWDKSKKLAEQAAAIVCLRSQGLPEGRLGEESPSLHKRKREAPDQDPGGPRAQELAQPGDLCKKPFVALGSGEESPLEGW
UniProt Q9GZT9: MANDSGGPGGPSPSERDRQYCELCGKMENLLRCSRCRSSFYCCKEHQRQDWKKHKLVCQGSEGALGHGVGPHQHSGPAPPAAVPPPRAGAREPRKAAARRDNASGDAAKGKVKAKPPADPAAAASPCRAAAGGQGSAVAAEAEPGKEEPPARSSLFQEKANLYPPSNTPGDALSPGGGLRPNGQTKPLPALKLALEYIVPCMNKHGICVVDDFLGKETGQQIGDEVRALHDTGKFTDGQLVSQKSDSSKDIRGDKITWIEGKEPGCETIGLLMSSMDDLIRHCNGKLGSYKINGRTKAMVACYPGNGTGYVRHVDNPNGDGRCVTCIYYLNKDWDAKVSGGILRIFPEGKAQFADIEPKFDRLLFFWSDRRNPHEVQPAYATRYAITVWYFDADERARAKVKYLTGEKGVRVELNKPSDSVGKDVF
UniProt P63167, whole entry, looked up: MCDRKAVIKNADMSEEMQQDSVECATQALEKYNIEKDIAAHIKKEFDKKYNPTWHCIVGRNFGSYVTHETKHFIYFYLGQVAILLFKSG

Columns and labels:
Test in all cases: log2 fold change, soluble protein after heating vs DMSO (PISA); higher = thermal stabilisation; K562 lysate, 10 uM; active = over 0.2 and 3.5 SD of the protein, either way, in both replicates (recomputed)
lapatinib = compound: CS(=O)(=O)CCNCc1ccc(-c2ccc3ncnc(Nc4ccc(OCc5cccc(F)c5)c(Cl)c4)c3c2)o1 [lapatinib]
In short: (§1)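 Dounce homogenisation of K562 pellets in PBS pH 7.4 with 1 mM MgCl2 produced a crude extract, used at 1 mg/mL protein. Exposure to 10 μM compound lasted 30 min, and aliquots were then heated for 3 min across 48°C-58°C, pooled and brought to 0.5% NP-40 at 4°C. The supernatant after 21,000xg for 90 min was quantified by TMTpro 16plex LC-MS/MS with channel sums equalised. Duplicate values are given as log-two fold change in thermal stability relative to solvent controls.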

pictilisib = compound: CS(=O)(=O)N1CCN(Cc2cc3nc(-c4cccc5[nH]ncc45)nc(N4CCOCC4)c3s2)CC1 [pictilisib]
In short: as §1

crizotinib = compound: C[C@@H](Oc1cc(-c2cnn(C3CCNCC3)c2)cnc1N)c1c(Cl)ccc(F)c1Cl [crizotinib]
In short: as §1

[1] = compound: C[C@H](C1=CC=C(C=C1)C(=O)NC2=C3C=CNC3=NC=C2)N
In short: as §1

duvelisib = compound: C[C@H](Nc1ncnc2nc[nH]c12)c1cc2cccc(Cl)c2c(=O)n1-c1ccccc1 [duvelisib]
In short: as §1

gandotinib = compound: Cc1cc(Nc2cc(CN3CCOCC3)c3nc(C)c(Cc4ccc(Cl)cc4F)n3n2)n[nH]1 [gandotinib]
In short: as §1

tozasertib = compound: Cc1cc(Nc2cc(N3CCN(C)CC3)nc(Sc3ccc(NC(=O)C4CC4)cc3)n2)n[nH]1 [tozasertib]
In short: as §1

doramapimod = compound: Cc1ccc(-n2nc(C(C)(C)C)cc2NC(=O)Nc2ccc(OCCN3CCOCC3)c3ccccc23)cc1 [doramapimod]
In short: as §1

bafetinib = compound: Cc1ccc(NC(=O)c2ccc(CN3CC[C@H](N(C)C)C3)c(C(F)(F)F)c2)cc1Nc1nccc(-c2cncnc2)n1 [bafetinib]
In short: as §1

[2] = compound: Cc1cccc(CC(=O)N2CCc3c2ccc(-c2cn(C)c4ncnc(N)c24)c3F)n1
In short: as §1

nilotinib = compound: Cc1cn(-c2cc(NC(=O)c3ccc(C)c(Nc4nccc(-c5cccnc5)n4)c3)cc(C(F)(F)F)c2)cn1 [nilotinib]
In short: as §1

[3] = compound: Cc1nc(Nc2n[nH]c3c2CN(C(=O)N[C@H](CN(C)C)c2ccccc2)C3(C)C)c2sccc2n1
In short: as §1

dasatinib = compound: Cc1nc(Nc2ncc(C(=O)Nc3c(C)cccc3Cl)s2)cc(N2CCN(CCO)CC2)n1 [dasatinib]
In short: as §1

[4] = compound: Cc1ncc(-c2ccnc(Nc3ccc(S(C)(=O)=O)cc3)n2)n1C(C)C
In short: as §1

[5] = compound: Cn1cc(-c2ccc3c(c2)CCN3C(=O)Cc2cccc(C(F)(F)F)c2)c2c(N)ncnc21
In short: as §1

quisinostat = compound: Cn1cc(CNCC2CCN(c3ncc(C(=O)NO)cn3)CC2)c2ccccc21 [quisinostat]
In short: as §1

tipifarnib = compound: Cn1cncc1[C@@](N)(c1ccc(Cl)cc1)c1ccc2c(c1)c(-c1cccc(Cl)c1)cc(=O)n2C [tipifarnib]
In short: as §1

[6] = compound: NC(=O)Nc1cc(-c2cccc(F)c2)sc1C(=O)N[C@H]1CCCNC1
In short: as §1

[7] = compound: NC(=O)c1cnc(N[C@@H]2CCCC[C@@H]2N)nc1Nc1cccc(-n2nccn2)c1
In short: as §1

[8] = compound: NC1(c2ccc(-c3nc4ccn5c(=O)[nH]nc5c4cc3-c3ccccc3)cc2)CCC1
In short: as §1

Measured: log2 fold change

EEF1B2 (UniProt P24534)
inactive: lapatinib -0.03 | pictilisib 0.034 | crizotinib 0.012 | [1] -0.001 | duvelisib 0.034 | gandotinib -0.003 | tozasertib -0.026 | doramapimod -0.002 | bafetinib 0.055 | [2] 0.011 | nilotinib -0.002 | [3] -0.002 | dasatinib 0 | [4] -0.01 | [5] -0.021 | quisinostat -0.009 | tipifarnib 0.006 | [6] 0.011 | [7] -0.02 | [8] -0.003

EBAG9 isoform 2 (UniProt O00559)
inactive: lapatinib -0.081 | pictilisib 0.03 | crizotinib -0.021 | [1] -0.012 | duvelisib -0.159 | gandotinib 0.111 | tozasertib -0.03 | doramapimod 0.071 | bafetinib -0.023 | [2] -0.03 | nilotinib 0.016 | [3] 0.02 | dasatinib 0.073 | [4] -0.017 | [5] 0 | quisinostat 0.005 | tipifarnib -0.007 | [6] 0.148 | [7] -0.016 | [8] -0.063

DTYMK (UniProt P23919)
inactive: lapatinib 0.026 | pictilisib -0.003 | crizotinib -0.042 | [1] 0.055 | duvelisib 0.023 | gandotinib -0.135 | tozasertib 0.01 | doramapimod 0.045 | bafetinib 0.007 | [2] -0.029 | nilotinib -0.003 | [3] 0.002 | dasatinib -0.072 | [4] -0.007 | [5] -0.025 | quisinostat -0.009 | tipifarnib 0.017 | [6] 0.045 | [7] -0.024 | [8] -0.007

EDC4 (UniProt Q6P2E9)
inactive: lapatinib -0.025 | pictilisib -0.029 | crizotinib -0.01 | [1] -0.044 | duvelisib 0.016 | gandotinib -0.027 | tozasertib -0.016 | doramapimod -0.014 | bafetinib -0.043 | [2] 0.049 | nilotinib 0 | [3] 0.007 | dasatinib -0.058 | [4] 0.007 | [5] -0.002 | quisinostat -0.071 | tipifarnib -0.001 | [6] 0.01 | [7] 0.027 | [8] 0.011

EFTUD2 (UniProt Q15029)
inactive: lapatinib -0.001 | pictilisib -0.011 | crizotinib 0.017 | [1] 0.039 | duvelisib -0.012 | gandotinib -0.008 | tozasertib -0.033 | doramapimod 0 | bafetinib 0.031 | [2] -0.039 | nilotinib 0.007 | [3] -0.011 | dasatinib 0.018 | [4] -0.005 | [5] 0.008 | quisinostat -0.012 | tipifarnib 0.008 | [6] -0.004 | [7] -0.02 | [8] 0.005

Fetched one by one from the entries so far, two records:
DTYMK (UniProt P23919)
inactive: lapatinib 0.026 | pictilisib -0.003 | crizotinib -0.042 | [1] 0.055 | duvelisib 0.023 | gandotinib -0.135 | tozasertib 0.01 | doramapimod 0.045 | bafetinib 0.007 | [2] -0.029 | nilotinib -0.003 | [3] 0.002 | dasatinib -0.072 | [4] -0.007 | [5] -0.025 | quisinostat -0.009 | tipifarnib 0.017 | [6] 0.045 | [7] -0.024 | [8] -0.007

EDC4 (UniProt Q6P2E9)
inactive: lapatinib -0.025 | pictilisib -0.029 | crizotinib -0.01 | [1] -0.044 | duvelisib 0.016 | gandotinib -0.027 | tozasertib -0.016 | doramapimod -0.014 | bafetinib -0.043 | [2] 0.049 | nilotinib 0 | [3] 0.007 | dasatinib -0.058 | [4] 0.007 | [5] -0.002 | quisinostat -0.071 | tipifarnib -0.001 | [6] 0.01 | [7] 0.027 | [8] 0.011

(further entries)

DPH2 (UniProt Q9BQC3)
inactive: lapatinib 0.016 | pictilisib 0.004 | crizotinib -0.038 | [1] 0.034 | duvelisib -0.017 | gandotinib 0.04 | tozasertib -0.003 | doramapimod 0.061 | bafetinib -0.01 | [2] -0.02 | nilotinib 0.021 | [3] 0.04 | dasatinib -0.001 | [4] -0.032 | [5] 0.048 | quisinostat -0.01 | tipifarnib 0.01 | [6] -0.004 | [7] 0.025 | [8] 0.04

DPH1 (UniProt Q9BZG8)
inactive: lapatinib -0.008 | pictilisib -0.032 | crizotinib 0.013 | [1] -0.003 | duvelisib 0.014 | gandotinib -0.008 | tozasertib 0.01 | doramapimod -0.01 | bafetinib 0.012 | [2] -0.008 | nilotinib 0.031 | [3] -0.05 | dasatinib 0.005 | [4] -0.054 | [5] -0.011 | quisinostat 0.005 | tipifarnib -0.036 | [6] -0.001 | [7] 0.006 | [8] -0.034

DPP9 isoform 2 (UniProt Q86TI2)
inactive: lapatinib -0.009 | pictilisib -0.029 | crizotinib 0.002 | [1] -0.006 | duvelisib -0.033 | gandotinib 0.003 | tozasertib 0.006 | doramapimod -0.013 | bafetinib -0.03 | [2] -0.007 | nilotinib 0.011 | [3] -0.006 | dasatinib 0.01 | [4] 0.02 | [5] -0.006 | quisinostat -0.008 | tipifarnib 0.004 | [6] 0.022 | [7] 0.003 | [8] -0.003

DPM1 (UniProt O60762)
inactive: lapatinib -0.003 | pictilisib 0.009 | crizotinib 0.009 | [1] 0.028 | duvelisib -0.018 | gandotinib -0.097 | tozasertib -0.014 | doramapimod -0.046 | bafetinib -0.061 | [2] 0.061 | nilotinib 0.013 | [3] 0.019 | dasatinib 0.028 | [4] -0.014 | [5] 0.044 | quisinostat 0.057 | tipifarnib 0.03 | [6] 0.038 | [7] 0.019 | [8] -0.057

DSCC1 (UniProt Q9BVC3)
inactive: lapatinib 0.022 | pictilisib -0.045 | crizotinib -0.07 | [1] -0.021 | duvelisib -0.028 | gandotinib 0.006 | tozasertib -0.049 | doramapimod 0.056 | bafetinib -0.02 | [2] 0.011 | nilotinib 0.072 | [3] 0.053 | dasatinib 0.094 | [4] -0.08 | [5] -0.021 | quisinostat -0.113 | tipifarnib -0.019 | [6] 0.025 | [7] 0.069 | [8] -0.017

DPY19L1, A0A1B0GW05
inactive: lapatinib -0.014 | pictilisib 0.069 | crizotinib -0.057 | [1] -0.03 | duvelisib -0.011 | gandotinib -0.044 | tozasertib -0.033 | doramapimod 0.012 | bafetinib -0.022 | [2] 0.019 | nilotinib 0.005 | [3] -0.076 | dasatinib 0.001 | [4] 0 | [5] -0.017 | quisinostat -0.027 | tipifarnib -0.034 | [6] 0.002 | [7] 0.014 | [8] 0.022

DPP3 (UniProt Q9NY33)
inactive: lapatinib -0.008 | pictilisib -0.01 | crizotinib 0.025 | [1] 0.07 | duvelisib -0.011 | gandotinib -0.101 | tozasertib 0.008 | doramapimod -0.046 | bafetinib -0.032 | [2] -0.059 | nilotinib 0 | [3] 0 | dasatinib -0.016 | [4] 0 | [5] 0.023 | quisinostat 0.117 | tipifarnib -0.003 | [6] -0.006 | [7] -0.008 | [8] 0.005

DUS2 (UniProt Q9NX74)
inactive: lapatinib -0.033 | pictilisib 0.04 | crizotinib 0.041 | [1] -0.032 | duvelisib 0.018 | gandotinib -0.051 | tozasertib 0.011 | doramapimod -0.01 | bafetinib -0.017 | [2] -0.009 | nilotinib 0.021 | [3] -0.035 | dasatinib 0.037 | [4] 0.011 | [5] -0.024 | quisinostat 0.088 | tipifarnib -0.019 | [6] 0 | [7] 0.014 | [8] -0.045

EGLN1 (UniProt Q9GZT9)
inactive: lapatinib -0.075 | pictilisib 0.031 | crizotinib -0.018 | [1] 0.037 | duvelisib 0.199 | gandotinib -0.036 | tozasertib 0.034 | doramapimod 0.006 | bafetinib 0.001 | [2] -0.055 | nilotinib 0.006 | [3] 0.007 | dasatinib -0.045 | [4] -0.066 | [5] 0.03 | quisinostat -0.048 | tipifarnib -0.05 | [6] 0.044 | [7] 0.039 | [8] 0.006

DYNLL1 (UniProt P63167)
inactive: lapatinib 0.028 | pictilisib 0.001 | crizotinib -0.008 | [1] -0.059 | duvelisib 0.021 | gandotinib 0.021 | tozasertib 0.017 | doramapimod 0.02 | bafetinib 0.03 | [2] 0.053 | nilotinib 0.016 | [3] 0.067 | dasatinib -0.011 | [4] 0.06 | [5] -0.032 | quisinostat -0.066 | tipifarnib -0.013 | [6] -0.001 | [7] -0.018 | [8] -0.032
